Results of single-concentration screens

By UniProt entry, the sequences of proteins in these tests, tags left out.
UniProt P9WPC5, whole entry: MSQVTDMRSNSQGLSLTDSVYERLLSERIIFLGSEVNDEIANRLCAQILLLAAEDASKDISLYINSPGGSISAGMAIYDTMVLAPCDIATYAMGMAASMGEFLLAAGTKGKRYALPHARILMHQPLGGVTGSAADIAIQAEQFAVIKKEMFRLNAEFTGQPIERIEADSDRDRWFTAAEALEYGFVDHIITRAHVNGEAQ
UniProt P9WPC3, whole entry partner: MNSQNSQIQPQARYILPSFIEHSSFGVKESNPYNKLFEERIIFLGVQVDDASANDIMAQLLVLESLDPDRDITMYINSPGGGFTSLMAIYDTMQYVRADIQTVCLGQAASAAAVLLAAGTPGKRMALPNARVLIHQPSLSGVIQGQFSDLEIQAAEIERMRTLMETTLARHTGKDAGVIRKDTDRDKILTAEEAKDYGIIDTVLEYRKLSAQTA

Measurements from “University of Dundee, Small-Polar-MMV Screening Library” (2021), ChEMBL document CHEMBL3988442.

Values are the deposited “Percent Effect”, in %. How 0% and 100% were set is not recorded. Most values in the screen are low, and negative values occur. Compounds were drawn at random from those tested, without regard to their results.

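Protease assay of ClpP1P2, read by the AMC dye that it sets free. Target: ClpP1P2, Mycobacterium tuberculosis (UniProt P9WPC5 and UniProt P9WPC3). Concentration: 50 µM. Direction is inferred from only a few compounds that gave an IC50; most scored high, so higher reads as stronger inhibition. Most other retested compounds had strongly negative values. Of about 69,000 compounds tested this way, about 10 (0.015%) reached 50% or more in at least one test.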

{"smiles": "CC(CNC(=O)Nc1ccc(F)cc1-n1cccc1)N1CCOCC1", "stereo": "stereo not given", "effect": -10.51}
{"smiles": "O=C(CSc1ccccc1Cl)NS(=O)(=O)c1ccc2c(c1)OCCO2", "effect": 3.202}
{"smiles": "COc1ccc2c(c1)C(C(=O)N(C)CCc1scnc1C)CC(=O)N2", "stereo": "stereo not given", "effect": -4.603}
{"smiles": "Cc1cnc(N2CCC3(CC2)CN(Cc2cccs2)CCO3)nc1", "effect": -2.991}
{"smiles": "CC1=N[C@@]2(CC[C@@H]3CN(C(=O)NCc4cccc(F)c4)C[C@@H]32)C(=O)N1", "effect": 19.61}
{"smiles": "CCC(NC1CCCC1)c1ccc(S(C)(=O)=O)cc1", "stereo": "stereo not given", "effect": -18.06}
{"smiles": "CNC(=O)COc1ccccc1CNC1CCc2ncnn2C1", "stereo": "stereo not given", "effect": 24.75}
{"smiles": "CC(=O)Nc1nc(C(=O)Nc2ccc(F)cc2)cs1", "effect": 15.44}
{"smiles": "CCc1ccc(C(=O)N2CC[C@H](Oc3cccnc3C)[C@@H](O)CC2)cc1", "effect": -12.69}
{"smiles": "Cc1cccc(C(C)(C)CNc2cn[nH]c(=O)c2Cl)c1", "effect": 6.693}
{"smiles": "Cn1nc(COc2cccnc2)c2c1CCN(c1ncccn1)C2", "effect": 0.4669}
{"smiles": "CC(C)CN1C[C@H]2CCN(c3ncccn3)CC[C@H]2S1(=O)=O", "effect": -0.8156}
{"smiles": "CCC[C@@H]1CN(Cc2cc3c(cc2OC)OCO3)C[C@H]1C(=O)O", "effect": 1.571}
{"smiles": "COc1cc(C)nc(N2CCN(C(=O)c3cccc(C#N)c3)CC2)n1", "effect": -13.21}
{"smiles": "CCc1nnc2n1CCN(Cc1ccc3c(c1)OCCO3)C2", "effect": 20.7}
{"smiles": "Fc1ccccc1Cc1noc(CN2CCC(N3CCSCC3)CC2)n1", "effect": -10.2}
{"smiles": "Cc1ccc(S(=O)(=O)NCCNC(=O)c2ccoc2)cc1C", "effect": 6.006}
{"smiles": "C[C@]1(O)CCN(Cc2cccnc2)C[C@@H]1Oc1cccc(F)c1", "effect": -5.337}
{"smiles": "CN(Cc1cn2c(n1)CN(C(=O)C1CCOCC1)CC2)Cc1ccco1", "effect": -0.5754}
{"smiles": "COCc1noc(Cn2c(C)cc(C(F)(F)F)cc2=O)n1", "effect": -21.24}
{"smiles": "CN(Cc1nc2c(cnn2C)c(=O)[nH]1)Cc1ccc(F)cc1F", "effect": 21.73}
{"smiles": "CC(C)CC(=O)N1CC(=O)N(CCc2ccccc2)CC(O)C1", "stereo": "stereo not given", "effect": 1.581}
{"smiles": "CN(C)c1nccc(C2CCN(C3CCCCC3O)CC2)n1", "stereo": "stereo not given", "effect": 1.552}
{"smiles": "Cc1nn(CCO)c(C)c1CNC1CCC(C)(C)c2ccccc21", "stereo": "stereo not given", "effect": -9.228}
{"smiles": "CCNC(=O)CC1CC2(CCN(C(C)=O)CC2)c2cc(F)ccc21", "stereo": "stereo not given", "effect": -8.423}
{"smiles": "Cc1cc(CNCC2Cn3nnc(C)c3CO2)oc1C", "stereo": "stereo not given", "effect": -11.19}
{"smiles": "O=C(c1ccccn1)N1CCCC(c2nccn2Cc2ccncc2)C1", "stereo": "stereo not given", "effect": 8.9}
{"smiles": "Cc1ccc(-c2cnnc(N3CCCC3c3nccs3)n2)o1", "stereo": "stereo not given", "effect": -4.957}
{"smiles": "Cc1ccc(C)c(-n2ncc(C(=O)N(C)CCc3ccccn3)c2N)c1", "effect": 3.015}
{"smiles": "CC(C)COc1cncc(NC(CO)c2ccco2)n1", "stereo": "stereo not given", "effect": -8.99}

Some entries from above, unchanged:

{"smiles": "CC(C)CN1C[C@H]2CCN(c3ncccn3)CC[C@H]2S1(=O)=O", "effect": -0.8156}
{"smiles": "Fc1ccccc1Cc1noc(CN2CCC(N3CCSCC3)CC2)n1", "effect": -10.2}
{"smiles": "COc1ccc2c(c1)C(C(=O)N(C)CCc1scnc1C)CC(=O)N2", "stereo": "stereo not given", "effect": -4.603}